# Experimental data reported in publication PMC3699650, “Structural Insights into the Abscisic Acid Stereospecificity by the ABA Receptors PYR/PYL/RCAR” (PLoS ONE, 2013).
# Protein sequences, listed by entry. Tags and fused reporters are not part of them. Lines headed by an entry give the natural chain unless they say otherwise; changes in a name come on top.
# UniProt Q9CAJ0: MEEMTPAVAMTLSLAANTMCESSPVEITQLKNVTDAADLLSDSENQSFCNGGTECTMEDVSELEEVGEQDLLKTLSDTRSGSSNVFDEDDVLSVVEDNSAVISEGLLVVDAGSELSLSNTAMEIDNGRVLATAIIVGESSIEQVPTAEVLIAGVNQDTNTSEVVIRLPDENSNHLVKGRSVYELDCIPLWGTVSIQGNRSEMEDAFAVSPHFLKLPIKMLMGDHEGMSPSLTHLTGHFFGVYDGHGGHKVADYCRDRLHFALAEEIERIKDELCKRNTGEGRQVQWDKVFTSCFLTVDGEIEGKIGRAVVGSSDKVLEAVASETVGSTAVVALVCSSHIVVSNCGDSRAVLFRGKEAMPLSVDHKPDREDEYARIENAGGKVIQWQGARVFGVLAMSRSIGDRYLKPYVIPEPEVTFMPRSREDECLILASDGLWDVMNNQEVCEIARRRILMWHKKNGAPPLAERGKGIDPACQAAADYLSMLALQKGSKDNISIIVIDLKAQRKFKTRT
# These are yes or no findings as the source states them, for the method shown. Binding calls can cover weak binding; strength is not graded here.
# Target: GST-HAB1 (residues 169–511) (Arabidopsis thaliana) (UniProt Q9CAJ0)
# Test: pull-down; GST-mediated pulldown of PYL3 proteins by GST-HAB1 in the presence of (−)-ABA; Coomassie Brilliant Blue staining; both purified
row,Binder,binding
1,"PYL3 (wild type) (receptor, UniProt Q9SSM7 1-209) MNLAPIHDPSSSSTTTTSSSTPYGLTKDEFSTLDSIIRTHHTFPRSPNTCTSLIAHRVDAPAHAIWRFVRDFANPNKYKHFIKSCTIRVNGNGIKEIKVGTIREVSVVSGLPASTSVEILEVLDEEKRILSFRVLGGEHRLNNYRSVTSVNEFVVLEKDKKKRVYSVVLESYIVDIPQGNTEEDTRMFVDTVVKSNLQNLAVISTASPT",binds
2,"PYL3 K79A (receptor, UniProt Q9SSM7 1-209) MNLAPIHDPSSSSTTTTSSSTPYGLTKDEFSTLDSIIRTHHTFPRSPNTCTSLIAHRVDAPAHAIWRFVRDFANPNKYAHFIKSCTIRVNGNGIKEIKVGTIREVSVVSGLPASTSVEILEVLDEEKRILSFRVLGGEHRLNNYRSVTSVNEFVVLEKDKKKRVYSVVLESYIVDIPQGNTEEDTRMFVDTVVKSNLQNLAVISTASPT",no binding
3,"PYL3 F81A (receptor, UniProt Q9SSM7 1-209) MNLAPIHDPSSSSTTTTSSSTPYGLTKDEFSTLDSIIRTHHTFPRSPNTCTSLIAHRVDAPAHAIWRFVRDFANPNKYKHAIKSCTIRVNGNGIKEIKVGTIREVSVVSGLPASTSVEILEVLDEEKRILSFRVLGGEHRLNNYRSVTSVNEFVVLEKDKKKRVYSVVLESYIVDIPQGNTEEDTRMFVDTVVKSNLQNLAVISTASPT",no binding
4,"PYL3 H139A (receptor, UniProt Q9SSM7 1-209) MNLAPIHDPSSSSTTTTSSSTPYGLTKDEFSTLDSIIRTHHTFPRSPNTCTSLIAHRVDAPAHAIWRFVRDFANPNKYKHFIKSCTIRVNGNGIKEIKVGTIREVSVVSGLPASTSVEILEVLDEEKRILSFRVLGGEARLNNYRSVTSVNEFVVLEKDKKKRVYSVVLESYIVDIPQGNTEEDTRMFVDTVVKSNLQNLAVISTASPT",no binding
5,"PYL3 Y144A (receptor, UniProt Q9SSM7 1-209) MNLAPIHDPSSSSTTTTSSSTPYGLTKDEFSTLDSIIRTHHTFPRSPNTCTSLIAHRVDAPAHAIWRFVRDFANPNKYKHFIKSCTIRVNGNGIKEIKVGTIREVSVVSGLPASTSVEILEVLDEEKRILSFRVLGGEHRLNNARSVTSVNEFVVLEKDKKKRVYSVVLESYIVDIPQGNTEEDTRMFVDTVVKSNLQNLAVISTASPT",no binding
6,"PYL3 F188A (receptor, UniProt Q9SSM7 1-209) MNLAPIHDPSSSSTTTTSSSTPYGLTKDEFSTLDSIIRTHHTFPRSPNTCTSLIAHRVDAPAHAIWRFVRDFANPNKYKHFIKSCTIRVNGNGIKEIKVGTIREVSVVSGLPASTSVEILEVLDEEKRILSFRVLGGEHRLNNYRSVTSVNEFVVLEKDKKKRVYSVVLESYIVDIPQGNTEEDTRMAVDTVVKSNLQNLAVISTASPT",no binding
7,"PYL3 V192A/V193A (receptor, UniProt Q9SSM7 1-209) MNLAPIHDPSSSSTTTTSSSTPYGLTKDEFSTLDSIIRTHHTFPRSPNTCTSLIAHRVDAPAHAIWRFVRDFANPNKYKHFIKSCTIRVNGNGIKEIKVGTIREVSVVSGLPASTSVEILEVLDEEKRILSFRVLGGEHRLNNYRSVTSVNEFVVLEKDKKKRVYSVVLESYIVDIPQGNTEEDTRMFVDTAAKSNLQNLAVISTASPT",no binding
